Laboratory results taken from paper PMC8461898.
No constants are given. Whether binding was seen depends on the method and setting. In cells and extracts the contact can be indirect.

Target: Epidermal growth factor receptor (EGFR) (human (endogenous in JHC7)) (UniProt P00533)
Assay: co-IP; CMTM3 overexpressed JHC7 cells (adenovirus, MOI 100); 1 mg lysate protein with 4 ug anti-EGFR antibody overnight at 4 C, protein G Sepharose 2 h at 4 C, three washes with lysis buffer, western blot

B1: CKLF-like MARVEL transmembrane domain containing (CMTM)3 (protein, UniProt Q96MX0 1-182)
chain: MWPPDPDPDPDPEPAGGSRPGPAVPGLRALLPARAFLCSLKGRLLLAESGLSFITFICYVASSASAFLTAPLLEFLLALYFLFADAMQLNDKWQGLCWPMMDFLRCVTAALIYFAISITAIAKYSDGASKAAGVFGFFATIVFATDFYLIFNDVAKFLKQGDSADETTAHKTEEENSDSDSD
binding: no binding
